Results: PMC12866682 (2025)
No constants are given. Whether binding was seen depends on the method and setting. Binding seen in cells or lysates may run through a third protein. These calls come from enrichment with a bait or labelling near it, and not all partners need be listed. Values belong to the binder of their own block, whether it stands above or below them.

The chains behind the UniProt entries cited, without tags or fusion partners. Residues count along the entry.
UniProt Q9NZC2, residues 19-174: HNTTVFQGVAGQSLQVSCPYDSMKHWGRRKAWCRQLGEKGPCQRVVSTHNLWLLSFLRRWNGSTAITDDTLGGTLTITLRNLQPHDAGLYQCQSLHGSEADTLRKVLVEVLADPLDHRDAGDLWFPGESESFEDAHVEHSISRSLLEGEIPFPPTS

Biological target: hTREM2-Fc (human) (UniProt Q9NZC2)
Assay: affinity purification with mass spectrometry; NETs proteins of SLE patients (DNase I treated, acetone precipitated, dissolved in cell lysis buffer with PMSF) incubated with hTREM2-Fc or control IgG1 and Protein A/G agarose beads for a night at 4 °C; beads washed five times; Orbitrap Fusion Lumos; only the target purified

binding: binds
B1: cathepsin G (CTSG) of neutrophil extracellular traps (protein, UniProt P08311 21-244)
chain: IIGGRESRPHSRPYMAYLQIQSPAGQSRCGGFLVREDFVLTAAHCWGSNINVTLGAHNIQRRENTQQHITARRAIRHPQYNQRTIQNDIMLLQLSRRVRRNRNVNPVALPRAQEGLRPGTLCTVAGWGRVSMRRGTDTLREVQLRVQRDRQCLRIFGSYDPRRQICVGDRRERKAAFKGDSGGPLLCNNVAHGIVSYGKSSGVPPEVFTRVSSFLPWIRTTMRS

binding: binds
B2: azurocidin (AZU1) of neutrophil extracellular traps (protein, UniProt P20160 27-251)
chain: IVGGRKARPRQFPFLASIQNQGRHFCGGALIHARFVMTAASCFQSQNPGVSTVVLGAYDLRRRERQSRQTFSISSMSENGYDPQQNLNDLMLLQLDREANLTSSVTILPLPLQNATVEAGTRCQVAGWGSQRSGGRLSRFPRFVNVTVTPEDQCRPNNVCTGVLTRRGGICNGDGGTPLVCEGLAHGVASFSLGPCGRGPDFFTRVALFRDWIDGVLNNPGPGPA
